PubChem BioAssay AID1508587 – Peter MacCallum Cancer Centre, 2020

Assay: 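Knockdowns that add to vemurafenib's cut in melanoma glycolysis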 (follow-up of hits)
System: human WM266.4 melanoma cells with a BRAF V600 mutation
Reagent: single siRNA against human genes, 25 nM
Timing: 96 h
Treatment: vemurafenib 300 nM (about IC25), given 48 h after transfection for 48 h
Measured: 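Medium lactate read by absorbance over DAPI-counted nuclei; ratio with versus without vemurafenib, set against non-targeting siRNA, averaged over 2 replicates; cell number also recorded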
Scale: lactate per cell, drug vs no drug: higher = less drug-induced drop in lactate per cell; lactate per cell with vemurafenib: higher = more lactate per cell under drug
Rule for the call: 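Enhancer call for any duplex whose drug versus no-drug per-cell lactate ratio is below 0.55 (2 SD beneath non-targeting average); genes confirmed when at least 2 of their 4 duplexes qualify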
Here is one part, drawn at random, of about 1,600 deposited reagents. 623 of all reagents (39%) were called active. 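Calls are for each duplex; lactate ratios contain extreme outliers.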 The numbers tell different reagents against one gene apart. Not all columns of the deposit are shown.

CREBRF (CREB3 regulatory factor) #1 scored lactate per cell, drug vs no drug 0.6; lactate per cell with vemurafenib 1.54; inactive.
CREBRF (CREB3 regulatory factor) #2 scored lactate per cell, drug vs no drug 0.48; lactate per cell with vemurafenib 0.82; active.
Knock-down of CREBRF (CREB3 regulatory factor) #3 resulted in: lactate per cell, drug vs no drug 0.6; lactate per cell with vemurafenib 1.06; inactive.
Against CREBRF (CREB3 regulatory factor) #4 the deposit lists lactate per cell, drug vs no drug 0.76; lactate per cell with vemurafenib 3.6; inactive.
For LRG1 (leucine rich alpha-2-glycoprotein 1) #1, the values are lactate per cell, drug vs no drug 0.46; lactate per cell with vemurafenib 0.93; active.
LRG1 (leucine rich alpha-2-glycoprotein 1) #2 showed lactate per cell, drug vs no drug 0.52; lactate per cell with vemurafenib 0.97; active.
With knock-down of LRG1 (leucine rich alpha-2-glycoprotein 1) #3 the results were lactate per cell, drug vs no drug 0.52; lactate per cell with vemurafenib 2.04; active.
After knock-down of LRG1 (leucine rich alpha-2-glycoprotein 1) #4, the screen gave lactate per cell, drug vs no drug 0.67; lactate per cell with vemurafenib 1.3; inactive.
For ZW10 (zw10 kinetochore protein) #1, the entry reads lactate per cell, drug vs no drug 0.52; lactate per cell with vemurafenib 1.71; active.
ZW10 (zw10 kinetochore protein) #2 showed lactate per cell, drug vs no drug 0.42; lactate per cell with vemurafenib 0.88; active.
ZW10 (zw10 kinetochore protein) #3 gave lactate per cell, drug vs no drug 0.52; lactate per cell with vemurafenib 1.17; active.
ZW10 (zw10 kinetochore protein) #4 showed lactate per cell, drug vs no drug 0.62; lactate per cell with vemurafenib 1.6; inactive.
TRAM1 (translocation associated membrane protein 1) #1 showed lactate per cell, drug vs no drug 0.59; lactate per cell with vemurafenib 1.68; inactive.
Knock-down of TRAM1 (translocation associated membrane protein 1) #2 resulted in: lactate per cell, drug vs no drug 0.66; lactate per cell with vemurafenib 1.31; inactive.
Silencing of TRAM1 (translocation associated membrane protein 1) #3 resulted in: lactate per cell, drug vs no drug 0.46; lactate per cell with vemurafenib 0.94; active.
Depletion of TRAM1 (translocation associated membrane protein 1) #4 resulted in: lactate per cell, drug vs no drug 0.39; lactate per cell with vemurafenib 0.4; active.
After knock-down of MAGEB4 (MAGE family member B4) #1, the record shows lactate per cell, drug vs no drug 0.76; lactate per cell with vemurafenib 1.23; inactive.
Depletion of MAGEB4 (MAGE family member B4) #2 resulted in: lactate per cell, drug vs no drug 0.56; lactate per cell with vemurafenib 1.4; inactive.
MAGEB4 (MAGE family member B4) #3 showed lactate per cell, drug vs no drug 0.8; lactate per cell with vemurafenib 1.23; inactive.
Depletion of MAGEB4 (MAGE family member B4) #4 came out at: lactate per cell, drug vs no drug 0.63; lactate per cell with vemurafenib 1.12; inactive.
Against KCNA4 (potassium voltage-gated channel subfamily A member 4) #1, the values are lactate per cell, drug vs no drug 0.4; lactate per cell with vemurafenib 0.77; active.
Depletion of KCNA4 (potassium voltage-gated channel subfamily A member 4) #2 came out at: lactate per cell, drug vs no drug 0.51; lactate per cell with vemurafenib 1.34; active.
For KCNA4 (potassium voltage-gated channel subfamily A member 4) #3, the entry reads lactate per cell, drug vs no drug 0.53; lactate per cell with vemurafenib 0.96; active.
For KCNA4 (potassium voltage-gated channel subfamily A member 4) #4 the deposit lists lactate per cell, drug vs no drug 0.62; lactate per cell with vemurafenib 1.38; inactive.
FABP7 (fatty acid binding protein 7) #1 scored lactate per cell, drug vs no drug 0.43; lactate per cell with vemurafenib 0.88; active.
Against FABP7 (fatty acid binding protein 7) #2 the deposit lists lactate per cell, drug vs no drug 0.52; lactate per cell with vemurafenib 1.17; active.
Knock-down of FABP7 (fatty acid binding protein 7) #3 gave: lactate per cell, drug vs no drug 0.5; lactate per cell with vemurafenib 0.7; active.
With knock-down of FABP7 (fatty acid binding protein 7) #4, the screen gave lactate per cell, drug vs no drug 0.48; lactate per cell with vemurafenib 0.72; active.

An excerpt from above, limited to “lactate per cell, drug vs no drug”.
KCNA4 (potassium voltage-gated channel subfamily A member 4) #1: 0.4
KCNA4 (potassium voltage-gated channel subfamily A member 4) #2: 0.51
KCNA4 (potassium voltage-gated channel subfamily A member 4) #3: 0.53
